From paper PMC7819943, “Rice protein-binding microarrays: a tool to detect cis-acting elements near promoter regions in rice”
The other results are listed elsewhere or left out.

Each sequence was assayed against T1, OsSMF1 (Oryza sativa, UniProt Q6ZLB0 1-436) (assay: protein-binding microarray (RPBM); PBS, 2% BSA, 51.3 ng/ul salmon testes DNA, 50 uM zinc acetate, 200 nM TF, 25 C, 1 h; high values mean tight binding). Conditions: protein: recombinant; tags: N-terminal polyhistidine and DsRed monomer fusion (pET32a); chain copies: 2; label: CyDye5-dUTP incorporated in the synthesized complementary strand; 3' TTTTT single-stranded linker to array surface; dsDNA, one strand shown.
T1 sequence: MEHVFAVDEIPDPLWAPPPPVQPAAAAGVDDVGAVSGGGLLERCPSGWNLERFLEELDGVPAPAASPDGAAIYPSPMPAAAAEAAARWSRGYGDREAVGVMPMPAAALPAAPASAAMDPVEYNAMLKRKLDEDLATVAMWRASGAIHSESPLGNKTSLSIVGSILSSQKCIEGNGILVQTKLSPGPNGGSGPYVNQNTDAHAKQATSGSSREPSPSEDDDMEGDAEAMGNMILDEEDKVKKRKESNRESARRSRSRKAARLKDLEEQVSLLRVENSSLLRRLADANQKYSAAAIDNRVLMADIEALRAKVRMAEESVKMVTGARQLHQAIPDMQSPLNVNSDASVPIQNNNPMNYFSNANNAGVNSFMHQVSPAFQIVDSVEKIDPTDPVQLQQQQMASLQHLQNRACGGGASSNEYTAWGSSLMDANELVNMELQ
Procedure, shortened: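 An Axon 4000B scanner gave the binding signal as per-feature fluorescence intensity in arbitrary units. This followed washing of a custom Agilent array that had been incubated for 1 h at 25 °C with 200 nM protein in PBS, 2% BSA, salmon testes DNA and 50 µM zinc acetate. The proteins were transcription factors fused at the N-terminus to polyhistidine and DsRed, expressed in E. coli BL21-CodonPlus and purified on Ni–NTA.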
“AACTTCTCAATGTGTGGCCCCGAGCTGTGGCTTCACAGCTCGGAGTCACCTAGTGCAG” was tested, and the binding signal was 63300 fluorescence intensity (a.u.).
For “ATGCTACTTATCTCACATGATGTCTTGGGTATTGTGTAGACGGAGTCACCTAGTGCAG”, the binding signal was 3490 fluorescence intensity (a.u.).
“GATCCTAGTCACAGACCAACATCGGGAGGCGGAGATCTCTCGGAGTCACCTAGTGCAG” was tested, and the binding signal was 3280 fluorescence intensity (a.u.).
“GAAACTTTCCTACGCACAAACTTTCAACTTTTACGTCACACGGAGTCACCTAGTGCAG” was tested, and the binding signal was 3340 fluorescence intensity (a.u.).
“AAGATGCAGGCAGAGGCTATTCTCCACGTGGCCATCTCCCCGGAGTCACCTAGTGCAG” was tested, and the binding signal was 12100 fluorescence intensity (a.u.).
In the case of “TGAGGCCCATGTCACCTTCCTCCTCCCATCTCATTCTCATCGGAGTCACCTAGTGCAG”, the binding signal is reported as 5070 fluorescence intensity (a.u.).
With “AATATGTAAAACTACATGTATACATAAAAGTATATTTAACCGGAGTCACCTAGTGCAG” the binding signal was 5340 fluorescence intensity (a.u.).
“ACTATATTTTAGTATTTTCTATTTTCGATGCTTTACAGCCCGGAGTCACCTAGTGCAG” was tested, and the binding signal was 3940 fluorescence intensity (a.u.).
With “GCCTTCCGTTCCGCTCCTCTACCGCCGCGTCAAGATTCCCCGGAGTCACCTAGTGCAG” the binding signal was 4950 fluorescence intensity (a.u.).
In the case of “CGCATCTGCACACGTGGCGATCTTCCATTGGCTGGGGCGTCGGAGTCACCTAGTGCAG”, the binding signal is reported as 15300 fluorescence intensity (a.u.).
For “GAATGGTAGTTATCCCACGTGGCATCATTTGGCGCCAAGGCGGAGTCACCTAGTGCAG”, the binding signal was 19900 fluorescence intensity (a.u.).
“GAGCGCGGCACGCGAGCATCAGGTGGTGCCGTGGTGGTGGCGGAGTCACCTAGTGCAG” was tested, and the binding signal was 3240 fluorescence intensity (a.u.).
In the case of “AAGCATGTGACGAGGATCCTCGTCGTGATATTCCGTCCATCGGAGTCACCTAGTGCAG”, the binding signal is reported as 5800 fluorescence intensity (a.u.).
In the case of “GACATAGCAGACGCATCTGACAGACACACGTAATCTCAACCGGAGTCACCTAGTGCAG”, the binding signal is reported as 4600 fluorescence intensity (a.u.).
For “GGCTAGGTGCAGTGACGTGTGTCCACTCCCCGTTGATTTGCGGAGTCACCTAGTGCAG”, the binding signal was 13600 fluorescence intensity (a.u.).
For “GACCTGTGGGGCCCACGTGGGTCCCACGCTGAGTCAGCCGCGGAGTCACCTAGTGCAG”, the binding signal was 20000 fluorescence intensity (a.u.).
In the case of “AGGCTTCTCAAACAGGCGTCACAACATACCGTGCTATCGTCGGAGTCACCTAGTGCAG”, the binding signal is reported as 3290 fluorescence intensity (a.u.).
With “TTGACAATGTGGTGCTACAGTAAATATTTGATAATGATGGCGGAGTCACCTAGTGCAG” the binding signal was 3330 fluorescence intensity (a.u.).
In the case of “GATGAGTGATGAAGCAGCTGTTTGTGATTAGATCTGTCTGCGGAGTCACCTAGTGCAG”, the binding signal is reported as 3730 fluorescence intensity (a.u.).
In the case of “TTCTAGACCTACTTAATTAACACTGCCAACTTGGTTAACACGGAGTCACCTAGTGCAG”, the binding signal is reported as 3690 fluorescence intensity (a.u.).
For “ACGCTAGCATCACTGCATCTGCACACACTGCACTTGCCTTCGGAGTCACCTAGTGCAG”, the binding signal was 3180 fluorescence intensity (a.u.).
“ACAGGTATCTAGTCACTAGTGACGGGCCATATAGATCCAGCGGAGTCACCTAGTGCAG” was tested, and the binding signal was 5010 fluorescence intensity (a.u.).
For “AGATATTGATTATGTTTAGCCATGTGGCTCCTTAAATGGGCGGAGTCACCTAGTGCAG”, the binding signal was 4520 fluorescence intensity (a.u.).
For “AATTCAAATAAACCGAGATAGAATGCGTGTGCCAGTTTAGCGGAGTCACCTAGTGCAG”, the binding signal was 3470 fluorescence intensity (a.u.).
“GTGTACACTCCGGCTTGGCCCATTAATCTTTAGGCCCAACCGGAGTCACCTAGTGCAG” was tested, and the binding signal was 19500 fluorescence intensity (a.u.).
In the case of “ATGAAACAGAAGAGTGGATATCTTATACATACTAACTACACGGAGTCACCTAGTGCAG”, the binding signal is reported as 21900 fluorescence intensity (a.u.).
In the case of “CATGTCAGGACGCCACGTCATCATGCTCTCTCTTTCCCCTCGGAGTCACCTAGTGCAG”, the binding signal is reported as 33600 fluorescence intensity (a.u.).
In the case of “GCCTTCCCCTCCCACGTGGATCCCCGCGCAACCGTCAGATCGGAGTCACCTAGTGCAG”, the binding signal is reported as 9890 fluorescence intensity (a.u.).
In the case of “AGCTGTGCCAACGAGCCCTTAATTAGTTATTATCTCTTCTCGGAGTCACCTAGTGCAG”, the binding signal is reported as 44600 fluorescence intensity (a.u.).
With “TGTGTGTCCGTATGTTTGATGTGACAAACAAACTTAAAATCGGAGTCACCTAGTGCAG” the binding signal was 28600 fluorescence intensity (a.u.).
With “ATCAAGAATTGAGTACCTAGTACTATGTGGCATTCCAGTGCGGAGTCACCTAGTGCAG” the binding signal was 3990 fluorescence intensity (a.u.).
In the case of “ACCTTCTAGACAAGGGTATGATGACATGTACCGATCCCAACGGAGTCACCTAGTGCAG”, the binding signal is reported as 6680 fluorescence intensity (a.u.).
With “GTGGCGTCTGTGACCGTCAGGCGTCAGCTCGTGTCCTCGCCGGAGTCACCTAGTGCAG” the binding signal was 4120 fluorescence intensity (a.u.).
In the case of “AATCCGAGTAGTCATTGTCGTTTCCATGCAGAATTATGGTCGGAGTCACCTAGTGCAG”, the binding signal is reported as 4030 fluorescence intensity (a.u.).
In the case of “ATGGCAGAGCTCCTACCCACAAATGTGTAGCTTTCATATTCGGAGTCACCTAGTGCAG”, the binding signal is reported as 7290 fluorescence intensity (a.u.).
“GAGAGGCGTGGGTTGATCGCAAAAGCAATAGGCTCCTCACCGGAGTCACCTAGTGCAG” was tested, and the binding signal was 3940 fluorescence intensity (a.u.).
For “ATTAATGCCCCAGTATCTGTCATCAAATTGCCAAAGCCGTCGGAGTCACCTAGTGCAG”, the binding signal was 3210 fluorescence intensity (a.u.).
“ACTAGTTGGGGTGTATAAGGTATGAGTATGATATATATGGCGGAGTCACCTAGTGCAG” was tested, and the binding signal was 3400 fluorescence intensity (a.u.).
In the case of “ACGTAGACGGTCTCGTGAGTTGTGTTGTGTTGTGACTTGTCGGAGTCACCTAGTGCAG”, the binding signal is reported as 4370 fluorescence intensity (a.u.).
With “TATTTTATTATGACTTGATTCGTCATCAAATGTTGTTTAACGGAGTCACCTAGTGCAG” the binding signal was 4940 fluorescence intensity (a.u.).
With “AGCTGTTCGACTACGCCATTGTCGTCACTCACTCCACCGTCGGAGTCACCTAGTGCAG” the binding signal was 3290 fluorescence intensity (a.u.).
“TTCTCTGTCACACAAAGCGGTGCAGCTCCACACGGCACCTCGGAGTCACCTAGTGCAG” was tested, and the binding signal was 3900 fluorescence intensity (a.u.).
“TTCTTCTGTGTTTGTCGATTCAGGGCTCCTTTGGAACGCACGGAGTCACCTAGTGCAG” was tested, and the binding signal was 31100 fluorescence intensity (a.u.).
With “CAACCGGGTGGAGGGGCCCACGCGGCGACGAGCGGCAGATCGGAGTCACCTAGTGCAG” the binding signal was 3380 fluorescence intensity (a.u.).
In the case of “CAACTATTTTGTGGTGTCAGCAATTTATGGTGCTCTGTTCCGGAGTCACCTAGTGCAG”, the binding signal is reported as 5750 fluorescence intensity (a.u.).
For “GTCTCGACCATCCGCCACGTAGGAGTTCGTTGTTGCTTATCGGAGTCACCTAGTGCAG”, the binding signal was 7650 fluorescence intensity (a.u.).
With “AGTGTAATACCAGCCACCTCCATTGACGCGTGGGCCCCAGCGGAGTCACCTAGTGCAG” the binding signal was 3200 fluorescence intensity (a.u.).
With “GCCCCGCCCCGCCCATCTTGTCAGATCCTTCTTCATAGTTCGGAGTCACCTAGTGCAG” the binding signal was 3210 fluorescence intensity (a.u.).
For “AGATTTACACCTTAATATATCCGATGTTTGATTGTTCGTTCGGAGTCACCTAGTGCAG”, the binding signal was 31300 fluorescence intensity (a.u.).
With “TCTCTTCCCCTCTCCGCGCCGCCCTCCGCCCCGCCCGCGGCGGAGTCACCTAGTGCAG” the binding signal was 3270 fluorescence intensity (a.u.).
With “CTTTCTTCTTCTCACACAAGCACAGTGCCATTTGAATCATCGGAGTCACCTAGTGCAG” the binding signal was 4480 fluorescence intensity (a.u.).
In the case of “TCCAAATAGCACGTACGCATGCATGCGTCCATGCCATCTCCGGAGTCACCTAGTGCAG”, the binding signal is reported as 3270 fluorescence intensity (a.u.).
“GAGAGAGTGTAGGTTGCCGATGACGTTCCAAATATTGATCCGGAGTCACCTAGTGCAG” was tested, and the binding signal was 4490 fluorescence intensity (a.u.).
With “GAACGGCGTTTTATCCTTTTCCATGTCATCACTCAGGAGACGGAGTCACCTAGTGCAG” the binding signal was 10600 fluorescence intensity (a.u.).
